# Among all 320,000 compounds or so, about 620 (0.19%) were called active. Inconclusive means that the source gave no clear call. Such entries were picked first, then a sample of the others. Cut-off read from the data, not from the text of the source: active = activation above about 80%; inconclusive = between about 30% and that limit; inactive = weaker than that.
# Protein sequences, listed by entry. Tags and fused reporters are not part of them.
# UniProt Q8NER1, whole entry, looked up: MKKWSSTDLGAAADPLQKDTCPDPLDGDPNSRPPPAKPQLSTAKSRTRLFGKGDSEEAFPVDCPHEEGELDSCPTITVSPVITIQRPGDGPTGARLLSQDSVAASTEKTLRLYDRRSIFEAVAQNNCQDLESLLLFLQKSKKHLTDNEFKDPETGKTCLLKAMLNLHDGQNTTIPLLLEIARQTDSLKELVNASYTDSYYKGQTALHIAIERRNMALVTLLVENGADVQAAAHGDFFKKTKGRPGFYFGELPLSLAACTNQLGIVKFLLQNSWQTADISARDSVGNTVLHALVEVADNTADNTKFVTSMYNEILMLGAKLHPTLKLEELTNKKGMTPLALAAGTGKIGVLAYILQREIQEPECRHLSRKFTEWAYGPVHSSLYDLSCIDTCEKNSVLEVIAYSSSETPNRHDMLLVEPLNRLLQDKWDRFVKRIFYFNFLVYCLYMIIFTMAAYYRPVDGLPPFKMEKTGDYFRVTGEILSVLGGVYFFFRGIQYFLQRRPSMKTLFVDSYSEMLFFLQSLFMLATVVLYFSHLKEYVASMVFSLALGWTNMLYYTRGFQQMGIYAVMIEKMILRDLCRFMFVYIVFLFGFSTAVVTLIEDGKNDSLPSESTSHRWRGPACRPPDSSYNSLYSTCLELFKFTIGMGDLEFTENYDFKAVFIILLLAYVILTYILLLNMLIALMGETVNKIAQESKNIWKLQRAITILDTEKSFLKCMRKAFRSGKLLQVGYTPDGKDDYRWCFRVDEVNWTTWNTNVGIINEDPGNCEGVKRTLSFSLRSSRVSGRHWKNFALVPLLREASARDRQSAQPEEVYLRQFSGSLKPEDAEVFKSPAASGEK
# Target: Transient receptor potential cation channel subfamily V member 1 (Homo sapiens) (UniProt Q8NER1)
# Experiment: HTS Assay for Compounds that Act as Agonists of the Vanilloid Receptor 1; note: 0% is about no effect
# Conditions: TRPV1-expressing cells, Fluo-8 calcium influx, agonist mode; at 8.33 µM, active compounds read high
# Summary of the method: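 Fluo-8 calcium influx in TRPV1-expressing cells, kinetic read (ex 480/em 520 nm). Compound added and read 3 min for agonist activity, followed by capsaicin at EC20 final and 2 min further read for enhancement.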
row,SMILES,activation
1,CC1(C)Cc2ccccc2-c2nc(CN3CCOCC3)[nH]c(=O)c21,inconclusive: 56.1%
2,Cc1cc(=O)oc2cc(NC(=O)c3ccc(OC(F)F)cc3)ccc12,inactive: -0.72%
3,CCC(=O)N1N=C(c2c(O)n(C)c(=O)n(C)c2=O)CC1c1ccccc1 (stereo not given),inactive: 2.37%
4,O=C(NCC(=O)N1CCCCC1)c1sc2ccccc2c1Cl,inconclusive: 36%
5,CCC(C)NC(=O)c1ccc(C(=O)c2ccccc2)cc1 (stereo not given),inconclusive: 34.2%
6,CCn1cc(C(=O)NCCCOC(C)C)c(=O)c2cc(S(=O)(=O)N3CCC(C)CC3)ccc21,inconclusive: 40.2%
7,CSc1ccc(Cc2ccc(Cl)cc2Cl)nn1,inconclusive: 39.3%
8,CCOCCCN(C)C1CCN(C(=O)c2oc3ccccc3c2NC(=O)c2ccc([N+](=O)[O-])cc2)CC1,inactive: 0.737%
9,CCC(CO)Nc1ncnc2onc(-c3ccc(F)cc3)c12 (stereo not given),inactive: 2.09%
10,Cc1sc2ncnc(NCC(O)c3ccc([N+](=O)[O-])cc3)c2c1C (stereo not given),inconclusive: 70.7%
11,CCc1ccc2oc(C(=O)NCc3ccncc3)c(C)c2c1,inconclusive: 34.1%
12,Cc1c(OCC(=O)N2CCC(C(N)=O)CC2)ccc2c1oc(=O)c1ccccc12,active: 90.8%
13,O=C(Nc1ccc(Cl)cc1Cl)c1ccc2ncsc2c1,inconclusive: 52.7%
14,Cc1ccc(N/C=C(/C#N)c2ccsc2)cc1,inconclusive: 48.9%
15,COc1ccc(-n2nc3c(N4CCC(C(=O)NCCc5ccccc5C)CC4)nnc(C)c3c2C)cc1,inconclusive: 40.4%
16,COc1cc(NC(=O)CSc2nnc3c(C)cc4c(C)ccc(C)c4n23)c(C(=O)O)cc1OC,inactive: -1.94%
17,Cc1cccc(-c2nnn(C/C(N)=N/O)n2)c1,inconclusive: 49.2%
18,CC1(c2nnc(-c3ccc(F)cc3)o2)CC(c2ccc(F)cc2)=NO1 (stereo not given),inconclusive: 44.4%
19,COc1ccc(-n2cc(CNCc3cccnc3)c(-c3cccc(F)c3)n2)cc1,inconclusive: 42.8%
20,O=C(Nc1ccccc1C(=O)Nc1ccccn1)c1cccc([N+](=O)[O-])c1,inactive: 10%
21,Cc1c(C)n(C)c2ccc(C(=O)NCCCN3CCCC3)cc12,inactive: 17.7%
22,CS(=O)(=O)c1ccc2nc(NC(=O)CS(=O)(=O)Cc3ccccc3)sc2c1,inactive: 4.93%
23,COc1cc(CCCN2C(=S)NC[C@@H]2CC2CCCCC2)cc(OC)c1OC,inconclusive: 38.6%

# 7 entries from above, as tab-separated lines:
row	SMILES	activation
1	CC1(C)Cc2ccccc2-c2nc(CN3CCOCC3)[nH]c(=O)c21	inconclusive: 56.1%
2	Cc1cc(=O)oc2cc(NC(=O)c3ccc(OC(F)F)cc3)ccc12	inactive: -0.72%
3	CCC(=O)N1N=C(c2c(O)n(C)c(=O)n(C)c2=O)CC1c1ccccc1 (stereo not given)	inactive: 2.37%
4	O=C(NCC(=O)N1CCCCC1)c1sc2ccccc2c1Cl	inconclusive: 36%
5	CCC(C)NC(=O)c1ccc(C(=O)c2ccccc2)cc1 (stereo not given)	inconclusive: 34.2%
6	CCn1cc(C(=O)NCCCOC(C)C)c(=O)c2cc(S(=O)(=O)N3CCC(C)CC3)ccc21	inconclusive: 40.2%
7	CSc1ccc(Cc2ccc(Cl)cc2Cl)nn1	inconclusive: 39.3%

# The list continues.

row,SMILES,activation
1,CC(C)(C)OC(=O)[C@H](Cc1ccccc1)NC(=O)c1[nH]cnc1C(=O)Nc1ccc(Cl)cc1,inconclusive: 38%
2,Cc1cc(C)c2nc(NC(=O)c3ccco3)sc2c1,inconclusive: 37.2%
3,COc1cc(/C=C/C(=O)NC(=O)c2ccccc2O)ccc1O,inactive: 2.36%
4,Cc1ccc(C)c(C(=O)CN2Cc3ccccc3C2=O)c1,inconclusive: 44.2%
5,CSc1ccc(/C=C/C(=O)NC23CC4CC(CC(C4)C2)C3)cc1,inconclusive: 56.8%
6,CCc1cccc(C)c1NC(=O)C1=C(C(=O)O)CCCC1,inactive: 0.44%
7,CCN(CC)c1ccc2c(C)c(CN3CCOCC3)c(=O)oc2c1,inactive: 9.05%
8,O=C(CC1CCCCC1)Nc1c2c(nn1-c1ccc(F)cc1)CS(=O)(=O)C2,inconclusive: 39.8%
9,CC1CCN(c2nc(-c3cccnc3)nc3scc(-c4ccccc4)c23)CC1,inactive: -3.48%
10,COc1ccc(CCNc2nc(-c3ccco3)cc(C(F)(F)F)n2)cc1OC,inconclusive: 43.3%
11,Cc1ccc(NC(=O)CSc2ccc(C(N)=O)cc2[N+](=O)[O-])cc1C,inactive: -3.45%
12,CC(C)(C)OC(=O)N1CCCN(C(=O)Nc2cccc(Cl)c2)CC1,inconclusive: 50.2%
13,C=CCn1cccc(C(=O)Nc2ccc(C)c(C)c2)c1=O,inconclusive: 64.3%
14,O=C(COc1ccccc1)NC1CCCN(Cc2ccccc2F)C1 (stereo not given),inconclusive: 39.5%
15,Nc1nonc1-n1nnc(C(=O)N/N=C/c2ccccc2)c1CSc1ccc(Cl)cc1,inconclusive: 33.2%
16,O=C(/C=C/c1ccccc1)/C=C/c1ccccc1,inconclusive: 41.6%
17,COc1ccc(C(=O)COc2ncnc3cc(Cl)ccc23)cc1,inactive: 6.56%
18,COC(=O)c1sccc1NC(=O)Nc1cccc([N+](=O)[O-])c1,inconclusive: 42.6%
19,CCOC(=O)C1CCCN(CC(=O)Nc2cc(C)cc(C)c2)C1 (stereo not given),inactive: 15.2%
20,Cc1ccc(/C=N/NC(=O)c2nnn(-c3nonc3N)c2C(C)C)s1,inconclusive: 42.3%
21,Cc1ccc(NC(=O)COC(=O)CNC(=O)c2ccc(Br)cc2)c(C)c1,inactive: 0.94%
22,O=C(Nc1ccc(Cl)c(C(F)(F)F)c1)c1ccco1,inconclusive: 46%
23,Cc1ccc(C(NC(=O)N2CCCC2)C(Cl)(Cl)Cl)cc1F (stereo not given),inconclusive: 34.7%

row,SMILES,activation
1,COc1ccc(CCC(=O)NCC23CC4CC(CC(C4)C2)C3)cc1,inconclusive: 41.3%
2,NC(=O)c1cc2ccccc2oc1=NCc1ccccc1,inactive: 27.6%
3,CCOc1ccc(N(C)S(=O)(=O)c2cc(-c3cc(C)no3)ccc2OC)cc1,inconclusive: 64.6%
4,Cc1cccc(-c2nnc3sc(-c4ccccc4)nn23)c1,inconclusive: 36.7%
5,CCOc1cc(CNc2ccc(N3CCCCC3)cc2)cc(Br)c1OCC(=O)NC(C)(C)C,inconclusive: 32.5%
6,Cc1cc(-c2ccccc2)nc(=O)[nH]1,inactive: -1.26%
7,Cc1ncoc1C(=O)NC1CCCc2c1cnn2-c1ccc(C(C)(C)C)cc1 (stereo not given),inconclusive: 75.1%
8,CCOc1cc(/C=N/NC(=O)c2ccncc2)cc(Cl)c1OS(C)(=O)=O,inconclusive: 32.7%
9,O=C(/C=C/Nc1ccc(Br)cc1F)c1ccco1,inconclusive: 32.4%
10,CCOC(=O)c1[nH]c2ccc(Cl)cc2c1NC(=O)/C=C/c1ccc2c(c1)OCO2,inconclusive: 34%
11,Cn1c(=O)c(C(=O)NNC(=O)c2ccccc2F)c(O)c2ccccc21,inactive: 10.7%
12,Cc1onc(-c2ccccc2Cl)c1C(=O)NNC(=O)c1ccc(F)cc1,inactive: -2%
13,Cc1ccc(S(=O)(=O)N2CCOC2CNC(=O)C(=O)NCCN(C)C)cc1 (stereo not given),inactive: -1.76%
14,COc1cccc(NC(=O)NNC(=O)CCc2ccc(O)c(O)c2)c1,inactive: 4.43%
15,CCn1c2ccccc2c2cc(NC(=O)c3cc(OC)cc(OC)c3)ccc21,inactive: 1.62%
16,Cc1nn(Cc2ccc(C(=O)NN)o2)c(C)c1Cl,inconclusive: 36.9%
17,O=C(NCCC(=O)N1CCN(c2cccc(Cl)c2)CC1)c1ccc(Br)cc1,inconclusive: 31.4%
18,CCc1ccc(OCCCC(=O)Nc2ccc(S(N)(=O)=O)cc2)cc1,inconclusive: 77.9%
19,COc1cccc(OCc2cc(C(=O)N3CCN(c4ccccc4O)CC3)no2)c1,inconclusive: 38%
20,COc1ccccc1N1CCN(C(=O)c2sc3nc(-c4ccccc4)cn3c2C)CC1,inconclusive: 52.9%
21,CCCOc1cc(N(CC)CC)ccc1/C=C(/C#N)c1nc2ccc(C)cc2[nH]1,inconclusive: 58.6%
22,COC(=O)C1=C(Nc2ccc(OC)cc2)C=C(C)C(C(=O)OC)C1c1ccc(C)cc1 (stereo not given),inconclusive: 37%
23,Cc1ccccc1C(=O)Nc1ccccc1C(=O)NCC(C)C,inconclusive: 31.8%

row,SMILES,activation
1,CC(=O)C1=NOC(CNc2ncc(C(F)(F)F)cc2Cl)C1 (stereo not given),inconclusive: 53.3%
2,COc1ccc(NC(=O)Nc2ccc3c(c2)N(C)C(=O)CS3)cc1Cl,inconclusive: 38.5%
3,O=C(NCc1ccc(F)cc1)Nc1ccccc1,inconclusive: 60.7%
4,CCCCNC(=S)N1CCN(c2nc3ccccc3s2)CC1,inconclusive: 39.8%
5,COc1ccc(-c2nc3ccc([N+](=O)[O-])cc3[nH]2)cc1,inconclusive: 35.1%
6,Cc1cccc(Nc2nc(-c3ccc(O)cc3O)cs2)n1,inactive: 0.14%
7,Cc1cc2nc(/C(C#N)=C/c3ccncc3)[nH]c2cc1C,inconclusive: 53%
8,O=C1CC2(CCN(C(=O)c3cccc(F)c3)CC2)Oc2ccccc21,inconclusive: 59.8%
9,Fc1cccc(-c2cc3nc4c(c(N5CCC6(CC5)OCCO6)n3n2)CCCC4)c1,inconclusive: 43.6%
10,O=C(NCC1CCOCC1)c1cc(COc2ccc(F)cc2F)on1,inconclusive: 47.1%
11,COc1ccc(-c2ccc(F)cc2)cc1[C@H]1[C@H]2C=CC[C@@H](C)[C@@H]2C(=O)N1Cc1ccccc1,inconclusive: 43.3%
12,CCc1cc(-c2n[nH]c(C)c2-c2nc3ccccc3n2C)c(O)cc1O,inactive: -0.667%
13,C=CCN(C(=O)CNC(=O)c1ccco1)C(C(=O)NC1CCCCC1)c1cccnc1 (stereo not given),inactive: 0.241%
14,Cc1cc(C(=O)CSc2nnc(N)s2)c(C)n1CCc1ccc(Cl)cc1,inconclusive: 41.2%
15,Cc1cc(NC(=O)CCSc2nc(-c3ccco3)cc(C(F)(F)F)n2)no1,inactive: 3.51%
16,S=C(NCc1cccs1)Nc1cccc2ccccc12,inconclusive: 52.9%
17,C/C(CC(=O)Nc1ccc(N(C)C)cc1)=N\NC(=O)c1ccccc1O,inconclusive: 46.2%
18,COc1ccc(C(=O)N2CCCC(Nc3ccc(F)c(F)c3)C2)c(OC)n1 (stereo not given),inconclusive: 71.5%
19,Cc1noc(C)c1CSCC(=O)N1CCN(c2ccc([N+](=O)[O-])cc2)CC1,inactive: 6.74%
20,Fc1ccc(Nc2nc(N/N=C/c3ccco3)nc(N3CCCCC3)n2)cc1,inconclusive: 51.5%
21,Cn1c(=O)c2c(nc(N/N=C3\CCCc4ccccc43)n2Cc2ccc(F)cc2)n(C)c1=O,inconclusive: 34.8%

# Reference: PubChem BioAssay AID540275 (National Center for Advancing Translational Sciences (NCATS), 2011)
